Data published in PubChem BioAssay AID1347423 (Functional Genomics Laboratory (NCATS/FGL), 2020).
Among all 52,000 sequences or so, about 210 (0.4%) were called active.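 Rule for the calls: active = gene whose silencing raises cell survival under the drug, median off-target-corrected z-score across its silencing RNAs 2 or more; inactive = the rest.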 This is one part of the list.

Experiment: Resistance to Poly (ADP-Ribose) Polymerase inhibitor: Gene Identification via Genome-wide siRNA Screen
Details: mouse BRCA2 R2336H ES cells, olaparib, CellTiter-Glo viability; stronger effect = higher value
Method in brief: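 Mouse BRCA2 R2336H ES cells were reverse-transfected with siRNA (20 nM final), treated at 48 h with 500 nM olaparib, and read by CellTiter-Glo after 72 h. Scores: MAD-based z per siRNA, median per gene, seed off-target correction.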

Sequence	z-score
GCCCUCAUACCUACUAUGUTT against 4631405J19Rik	inactive: 1.74
GGGAAGCCUUACUUAUUGGTT against V1rb3	inactive: -0.658
GCAACCGAAGAAUGUUUACTT against C330008L01Rik	inactive: 0.323
GGCCUGCGUUCAGAAGAGUTT against Wrn	inactive: 0.0774
GGCCAUCUAAUGACCUUCATT against Madd	inactive: -1.39
GGUUUUCUUUCCUUCUUGGTT against Abcd4	inactive: -0.269
CCUGAAGAUUUUAUGGACGTT against Gpatc1	inactive: 0.529
GGAAGAUGCACAUCUGGACTT against 2310057D15Rik	inactive: 0.28
GGCCUACCUAUAGAAAUGATT against D230012E17Rik	inactive: 0.914
GGAUGUCGAGACCAUAAUCTT against Clcn5	inactive: -0.363
GGAUGAUCUGGUCCUUUUGTT against Stx17	inactive: -0.268
CCCUAGGCCUACCUAAUGATT against 2900055D14Rik	inactive: -2.84
GGCUAUGUCUGUUUCCUUUTT against Defcr-rs10	inactive: 0.844
GGAAGGACCAAAGCUUUCUTT against Olfr1123	inactive: 0.0121
GGAGAAUGGUCUUAGGUUUTT against 2410129E14Rik	inactive: 0.245
CGAACAACUUGAAGUCACUTT against Tpm1	inactive: -0.916
GGUUGUUUUCCCUAGGGUGTT against Sema6a	inactive: -0.681
GGUCAAAAUUUCCAAACUCTT against Gpr34	inactive: 0.592
CGGUGCAUCCAAAUUCACATT against LOC434377	inactive: 0.557
CCGUUUUUAAAGCGGGCCATT against BC023818	inactive: 0.681
GGAUGUGGUGGAAGAUUUCTT against Krt2-7	inactive: 1.55
GGAUAUCACCUUCGAGAUATT against 4930532L20Rik	inactive: 0.987
GGUCCUAAUUCGAAGCAGATT against 0610039A15Rik	inactive: -1.88
GGUGGAGUUAACGAGAAACTT against Cyr61	inactive: 0.139
GCACCAAAACAGGAAUUACTT against Fibp	inactive: 0.573
GGUUUACAGCAUCAUUAAATT against Shmt1	inactive: 1.2

Sequence	z-score
CCUCGCAUAAUUAAUUGUUTT against Prdm8	inactive: 0.281
GCGAUCAAAAUUGUGUCACTT against A730017C20Rik	inactive: 1.12
GCCAGACUGGAGGUAAAAUTT against Serpinb10	inactive: 0.717
CCUCCAGAGUAUUGUCUAGTT against 2410127E16Rik	inactive: -2.53
GGUUUUUCAGCUUUGGAACTT against Decr1	inactive: 0.315
GGACACAUUCAUCUUAACATT against Twistnb	inactive: -1.22
GGCCAAGGAUAUUCAGUAUTT against Timp4	inactive: 1.07
CCAGGUUCUGUUGAGAAUCTT against Irak1bp1	inactive: -1.68
GGUGCCAUCCCAAACUUUATT against Frat2	inactive: -1.02
GGUGGAUGAUAAUGUUCUUTT against Gcnt3	inactive: -0.466
GGAGUUUAGUGACGAUGUGTT against Zfp46	inactive: -1.22
CGAAUUUUGGAGAUGUAUGTT against 4632434I11Rik	inactive: 0.365
CCAUCCAUAUGAACUAUGATT against Slc30a4	inactive: 0.431
GCUGGCUUUAAAAAUAUCUTT against C630002B14Rik	inactive: 0.461
GCGCGUCUAAAGCCGUAAATT against Hist1h1c	inactive: -0.274
GGUAAAAUGAUCCUUAGAATT against Pcdh15	inactive: 0.84
GGAAGGCAACUCUUAGAAUTT against Olfr491	inactive: 0.368
CCAGUAUGUACCACUAAGUTT against 4931440N07Rik	inactive: 0.862
GGAAGAUUAUCUCUUUUGATT against Olfr1214	inactive: -0.216
GGAAGACAUGAAAUUGUUCTT against Psma3	inactive: -2.92
GGAGAAUGGCAUUUUUGAGTT against Pkp3	inactive: 0.219
GGGUCAGAUGGUACCAAGATT against Adamts18	inactive: -1.17
GACGUGAUCUGCUUUUACUTT against AI428855	inactive: -0.385
GGAGAAGCCCUGAAUGAAGTT against Pik3c2g	inactive: -1.5
GGAUGAUCCACCGUCAAAATT against Il9	inactive: 1.85
GGCAGUCGAUUUAUAACUCTT against Clic5	inactive: -0.409

Sequence	z-score
GGGAGCGGAGCAAACAUAATT against Olfr1370	inactive: 0.384
CCCUAGAUGAGAAUCAUAGTT against Jarid1c	inactive: 1.17
GGCUGACAAGGAGAGCUUCTT against Pim3	inactive: 0.74
CCUCAGGGAAACUAUGUGUTT against E030006K04Rik	inactive: -0.221
CCUAAAGUCCUUAGUCACATT against Zfp397	inactive: 0.328
GGCUCUGGAAAAGAACAACTT against Sds	inactive: 2.11
GGCCUUGGCAUCUAUUUAUTT against Tcf12	inactive: 0.0849
GCUAAGGUCUGUUAAACGCTT against Hyal3	inactive: 0.137
GCUGAUGAAGGUGAUACGUTT against Pnma2	inactive: 0.0302
CCUGUAUCCGUGACUUUUGTT against C230094B15Rik	inactive: 0.278
GGAGUUUCAUCCUACCAACTT against Nodal	inactive: -0.528
CCUGACAGCACUUUGUGGATT against 9330140K16Rik	inactive: 1.12
GUCCCUCUCUUCUUGGUGUTT against Olfr74	inactive: -1.65
CGUAAGACGGAUGUACAUCTT against 2310010M20Rik	inactive: -0.284
GGACAGAAUUUUACCCUAATT against Odz3	inactive: -1.82
CCCGGCCAUCUACACUUAUTT against Gpr6	inactive: -0.608
GGAGACUGUCAGAAAGUUATT against Olfr1164	inactive: -1.82
GCAAGAGUGAGAAUAUGUCTT against Fadd	inactive: -0.159
GGUACUACACCUUUGAUGATT against Fibp	inactive: 0.252
GAUCCGUUGGGAAAAGAACTT against Ssbp4	inactive: -0.39
GGGUGACAACGGUUCUUACTT against 6430529G09Rik	inactive: -1.66
GGUGGUGUAAUCAAAUGUATT against Vps24	inactive: -0.977
GGAAAUUUUCCAUCAUGAATT against Scn8a	inactive: 1.27
GCAAUGGACUACUGCUGCUTT against Olfr704	inactive: -2.16
CGAUGAUCGGCUCAACAAGTT against Rplp2	inactive: -1.57
GGACUUACUGCUAAGAGCUTT against Stx8	inactive: -0.77

Another view of part of the listing above.
CCCUAGAUGAGAAUCAUAGTT against Jarid1c
  z-score: inactive: 1.17
GCUAAGGUCUGUUAAACGCTT against Hyal3
  z-score: inactive: 0.137
GGAGUUUCAUCCUACCAACTT against Nodal
  z-score: inactive: -0.528
CGUAAGACGGAUGUACAUCTT against 2310010M20Rik
  z-score: inactive: -0.284

More records follow:

Sequence	z-score
GGCACGCAUAUUCAACGAATT against Copg2	inactive: 0.693
CCUUGUUACUAUACUACACTT against Ppp1r2	inactive: -0.562
GGAAAUAUGGCAAGAAUUUTT against Rgs7	inactive: 0.896
GGUGGACAGGAGAAAGGAATT against Npy6r	inactive: -1.34
GGUGGUCCUUCCCUAAAGATT against Il11	inactive: 1.1
GGCUAAGCUGAAGAAGCACTT against 2310046O06Rik	inactive: -1.34
GGAAGUUAAAACCCUACUUTT against Trh	inactive: -1.28
GCUCCUAAUGAAAUGGUUUTT against Kif2a	inactive: 0.123
GGCACACUCACUCCUUUGATT against C79407	inactive: -2.3
GCAACUGAGGCUUUCUUUGTT against Copg	inactive: -0.942
GGGAAUAUGACUGAAUAUATT against Ss18	inactive: 0.113
GGAGUACAGUGAUGACAAGTT against Ing5	inactive: 0.235
GGAUAAAUCUCACUUCACATT against Etf1	inactive: -1.87
GGAACUCAUUAUGAUCUCCTT against 2410004C24Rik	inactive: 0.0941
GCCAAUAACUUCACUGAUATT against Pi15	inactive: -0.057
CCCGGAGAAAUACAUUAAGTT against Exoc7	inactive: 0.127
GCUACAGUGAUACAUUAGATT against Zfp69	inactive: 0.373
CGUUAUUUGCUGACAAUGUTT against Tas2r119	inactive: 0.0676
CCAAUUUUCAAGAUCGGUCTT against Akap2	inactive: -0.162
GGACAAACAUUGGAUUGAUTT against 0610009C03Rik	inactive: 0.453
GGAGAAAAAGAUCUCAGCUTT against D830039M14Rik	inactive: 0.0848
GGCCUUACUAAAUAUACAUTT against 4931412G03Rik	inactive: 0.474
GGUCCUGUUGGAGAUGAUATT against Ube2d2	inactive: -1.54
GGAAAUCCAGAAGAAAUUATT against Stmn1	inactive: 0.357
GGAGCAGAAGAAAUAUCUUTT against Olfr13	inactive: -0.493
GGAAUUGCACUUUUCCAAUTT against Phlda1	inactive: 1.34
